The results in this text go back to publication PMC5353732.

Amino acid sequences for entries named in this document (tags omitted).
UniProt Q04207: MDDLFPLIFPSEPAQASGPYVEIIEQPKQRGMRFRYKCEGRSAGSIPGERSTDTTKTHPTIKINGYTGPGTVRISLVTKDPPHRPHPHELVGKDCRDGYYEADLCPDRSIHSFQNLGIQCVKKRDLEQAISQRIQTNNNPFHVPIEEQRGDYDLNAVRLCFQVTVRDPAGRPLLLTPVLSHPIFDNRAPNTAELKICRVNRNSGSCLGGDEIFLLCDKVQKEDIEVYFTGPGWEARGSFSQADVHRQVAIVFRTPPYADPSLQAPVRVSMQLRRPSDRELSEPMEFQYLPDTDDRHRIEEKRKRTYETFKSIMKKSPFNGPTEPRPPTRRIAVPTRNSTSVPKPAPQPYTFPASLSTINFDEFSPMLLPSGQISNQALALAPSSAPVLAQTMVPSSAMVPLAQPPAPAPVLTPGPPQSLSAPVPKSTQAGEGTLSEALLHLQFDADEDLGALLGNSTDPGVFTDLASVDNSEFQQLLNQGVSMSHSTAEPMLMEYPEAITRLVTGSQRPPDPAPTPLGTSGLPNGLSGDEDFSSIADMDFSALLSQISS
UniProt P37238: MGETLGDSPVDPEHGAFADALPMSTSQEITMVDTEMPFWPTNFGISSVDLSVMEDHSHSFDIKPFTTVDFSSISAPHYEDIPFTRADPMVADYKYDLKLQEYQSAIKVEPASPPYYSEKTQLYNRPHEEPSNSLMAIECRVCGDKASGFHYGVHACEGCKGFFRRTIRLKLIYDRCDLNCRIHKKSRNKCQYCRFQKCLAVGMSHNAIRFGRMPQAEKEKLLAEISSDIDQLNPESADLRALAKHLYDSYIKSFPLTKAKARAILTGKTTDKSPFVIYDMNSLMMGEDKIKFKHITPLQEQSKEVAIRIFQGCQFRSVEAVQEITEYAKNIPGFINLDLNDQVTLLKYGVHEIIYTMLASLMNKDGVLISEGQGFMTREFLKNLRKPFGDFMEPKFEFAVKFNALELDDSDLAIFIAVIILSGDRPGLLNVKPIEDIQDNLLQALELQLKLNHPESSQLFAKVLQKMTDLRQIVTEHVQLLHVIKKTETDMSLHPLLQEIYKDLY

In this assay the target is NF-κBp65 (mouse (endogenous in RAW264.7)) (UniProt Q04207). Description: co-IP; nuclear lysates of RAW264.7 macrophages, pre-cleared with protein A/G beads; precipitated overnight at 4 °C with anti-NF-κBp65 or anti-PPAR-γ antibody (5 μg), blotted with anti-PPAR-γ or anti-NF-κBp65 antibody respectively; non-immune IgG as negative control; cells also treated with GW1929 (more complex) or GW9662 (less complex).

No constants are given. Whether binding was seen depends on the method and setting. In cells and extracts the contact can be indirect. Some results given as binding are weak or reduced against the parent protein; the word gives no strength.

In the case of “Peroxisome proliferator activated receptor γ (PPAR-γ) (from UniProt P37238 1-505)”, the binding result was “binds”.
